The target of experiment [1] is human MrGPRX1-NP (Mas-related G-protein coupled receptor X1 with the C-terminal NanoBiT natural peptide fragment) (human) (UniProt Q96LB2). The experiment is described as follows: FRET or BRET; NanoBiT-BRET (nbBRET) in live HEK293 cells: MrGPRX1-NP with the early endosome marker FYVE-LgBiT forms the donor, effector with Venus/YFP is the acceptor; change after BAM8-22 (1 μM), furimazine 10 μM, HBSS with 10 mM HEPES pH 7.4. In general terms: In BRET a luciferase serves as donor, and the signal depends on an acceptor being close.

Sequences of proteins named here, by UniProt entry; tags and fusion partners are left off.
UniProt Q96LB2: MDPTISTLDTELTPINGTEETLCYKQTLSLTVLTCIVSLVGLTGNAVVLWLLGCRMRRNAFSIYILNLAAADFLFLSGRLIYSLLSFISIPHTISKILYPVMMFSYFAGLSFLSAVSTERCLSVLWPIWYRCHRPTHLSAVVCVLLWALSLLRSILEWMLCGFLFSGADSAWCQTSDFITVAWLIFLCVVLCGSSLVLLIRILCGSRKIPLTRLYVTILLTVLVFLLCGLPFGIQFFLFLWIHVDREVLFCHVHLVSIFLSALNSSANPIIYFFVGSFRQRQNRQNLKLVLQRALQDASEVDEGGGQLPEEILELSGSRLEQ
UniProt P49407: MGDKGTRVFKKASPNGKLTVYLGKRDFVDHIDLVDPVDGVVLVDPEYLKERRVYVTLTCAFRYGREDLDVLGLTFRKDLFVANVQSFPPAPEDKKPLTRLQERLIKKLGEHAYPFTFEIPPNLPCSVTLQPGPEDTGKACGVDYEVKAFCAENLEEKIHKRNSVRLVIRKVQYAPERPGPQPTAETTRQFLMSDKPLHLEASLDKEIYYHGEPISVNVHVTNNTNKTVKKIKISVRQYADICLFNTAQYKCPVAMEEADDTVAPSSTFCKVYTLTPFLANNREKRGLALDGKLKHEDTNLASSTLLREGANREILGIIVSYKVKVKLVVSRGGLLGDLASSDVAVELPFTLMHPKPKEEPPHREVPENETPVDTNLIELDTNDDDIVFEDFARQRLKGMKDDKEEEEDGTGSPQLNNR
UniProt P32121: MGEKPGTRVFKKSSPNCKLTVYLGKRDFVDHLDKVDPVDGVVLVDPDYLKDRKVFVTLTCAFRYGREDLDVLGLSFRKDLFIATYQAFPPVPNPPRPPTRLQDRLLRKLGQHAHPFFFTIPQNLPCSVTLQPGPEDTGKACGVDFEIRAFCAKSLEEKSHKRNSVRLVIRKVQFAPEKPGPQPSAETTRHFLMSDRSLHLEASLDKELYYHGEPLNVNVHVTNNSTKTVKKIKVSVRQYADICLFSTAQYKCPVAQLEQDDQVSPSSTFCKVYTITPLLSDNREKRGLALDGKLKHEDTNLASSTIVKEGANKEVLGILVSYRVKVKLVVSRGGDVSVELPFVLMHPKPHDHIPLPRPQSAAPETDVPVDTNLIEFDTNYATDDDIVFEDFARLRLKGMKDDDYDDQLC

Experiment [2] shares this target. The experiment is described as follows: FRET or BRET; NanoBiT-BRET (nbBRET) in live HEK293 cells: MrGPRX1-NP with the plasma membrane marker CAAX-LgBiT forms the donor, effector with Venus/YFP is the acceptor; change after BAM8-22 (1 μM), furimazine 10 μM, HBSS with 10 mM HEPES pH 7.4.

No constants are given. Whether binding was seen depends on the method and setting. Binding seen in cells or lysates may run through a third protein. Some entries that bind do so weakly or less than the wild type.

Turning to “β-arrestin 1-Venus (from UniProt P49407 1-418)”, the binding result in experiment [1] and in experiment [2] was “binds” each time.
Consider “β-arrestin 2-Venus (from UniProt P32121 1-409)”, for which the binding entry in experiment [1] and in experiment [2] was “no binding” each time.

For the origin of these results see PMC13368649.
